Results as given in article PMC10762086.
Results are given in words; binding and its absence hold for the method and conditions named. In cells and extracts the contact can be indirect. Some results given as binding are weak or reduced against the parent protein; the word gives no strength.

Sequences of proteins named here, by UniProt entry; tags and fusion partners are left off. A change or cut given only in a name is not applied to a line headed by its entry.
UniProt P18901: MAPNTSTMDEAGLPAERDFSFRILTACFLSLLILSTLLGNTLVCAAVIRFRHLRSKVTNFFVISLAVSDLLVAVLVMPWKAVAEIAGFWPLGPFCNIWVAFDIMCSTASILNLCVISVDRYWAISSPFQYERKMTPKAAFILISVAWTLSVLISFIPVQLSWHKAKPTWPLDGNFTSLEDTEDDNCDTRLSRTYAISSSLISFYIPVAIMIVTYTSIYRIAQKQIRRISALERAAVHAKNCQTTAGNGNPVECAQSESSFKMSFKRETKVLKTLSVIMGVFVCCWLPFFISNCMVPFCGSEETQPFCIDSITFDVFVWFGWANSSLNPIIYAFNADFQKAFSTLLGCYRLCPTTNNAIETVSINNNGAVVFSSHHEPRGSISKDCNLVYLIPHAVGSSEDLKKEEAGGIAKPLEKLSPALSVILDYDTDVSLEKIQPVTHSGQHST

Experiments:
[1] = target: D2R, endogenous in rat hippocampus (rat (endogenous in hippocampus)) (UniProt P61169); experiment: co-IP; rat hippocampus protein extract (500-700 µg; P8 and P36 animals) in lysis buffer with 150 mM NaCl, 0.5% deoxycholate, 1% NP-40, 1% Triton X-100, 0.1% SDS, pH 7.4; precipitated with antibodies against D1R or D2R (2 µg) on protein A/G agarose, 4 °C, 12 hours; blotted for GluN2A or GluN2B
[2] = target: GluN1-GluN2A NMDAR: carboxyl terminally tagged GluN1-GFP co-expressed with HA-GluN2A in COS-7 cells (UniProt P35439); experiment: FRET or BRET; frequency-domain FRET-FLIM in COS-7 cells co-transfected 1:1:1 with GluN1-GFP, GluN2 subunit and D1R-mCherry; GFP lifetime read 20-24 hours after transfection
[3] = target: GluN1-GluN2B NMDAR: GluN1-GFP co-expressed with GluN2B in COS-7 cells (UniProt P35439); experiment: as above
[4] = target: D1R, endogenous in rat hippocampus (rat (endogenous in hippocampus)) (UniProt P18901); experiment: co-IP; rat hippocampus protein extract (500-700 µg; P8 and P36 animals) in lysis buffer with 150 mM NaCl, 0.5% deoxycholate, 1% NP-40, 1% Triton X-100, 0.1% SDS, pH 7.4; precipitated with antibodies against D1R or D2R (2 µg) on protein A/G agarose, 4 °C, 12 hours; blotted for GluN2A or GluN2B

With “GluN2B subunit of the NMDAR, endogenous in rat hippocampus (from UniProt Q00960 27-1482)” the binding [1] was “binds”.

In the case of “carboxyl terminally tagged D1R (WT)-mCherry (from UniProt P18901 1-446) (receptor)”, the binding [2] is reported as “binds” and the binding [3] is reported as “binds”.

“phosphomimic form of D1R, carboxyl terminally tagged D1R (S397D)-mCherry (from UniProt P18901 1-446) (receptor)” was tested, and the binding [2] was “binds”.

In the case of “GluN2A subunit of the NMDAR, endogenous in rat hippocampus (from UniProt Q00959 23-1464)”, the binding [4] is reported as “binds”.
